{"source": "paper PMC3946900", "about": "(Pharmaceutical research, 2013)", "origin": "cited, not measured here", "test_system": "P-gp (mdr1)", "conditions": "mouse, in vivo; cited from earlier work"}
{"smiles": "CN1CC[C@]23c4c5ccc(O)c4O[C@H]2[C@@H](O)C=C[C@H]3[C@H]1C5", "note": "[Morphine]", "values": [{"measurement": "Brain Conc. Ratio mdr1(−/−)/mdr1(+/+)", "result": 1.7}, {"measurement": "Liver Conc. Ratio mdr1(−/−)/mdr1(+/+)", "result": 1.1}]}
